Measured values from patent publication US20120277719A1, “COATING COMPOSITIONS, METHODS AND COATED DEVICES” (MASSACHUSETTS INSTITUTE OF TECHNOLOGY, priority 2011, published 2012).
≈ marks a conversion by molar mass, not a printed value.

System: S. aureus 25923
Assay: S. aureus growth inhibition by dilutions of film release solutions (optical density at 600 nm)
Format: cell-based
Conditions: Staphylococcus aureus, 16-18 hours, 37 C, 10^5 CFU/mL, read-out: MIC against S. aureus
Procedure: A quantitative determination of vancomycin activity from a coated gelatin sponge sample was obtained by first completely releasing the coated sponge into a 1 mL, 0.01 M PBS bath, at 37° C. The exact concentration of vancomycin in this release solution was determined using HPLC methods described earlier. Subsequently, S. aureus in its exponential growth phase was added to dilutions of this release solution in CaMHB at a final concentration of 10^5 CFU/mL. Non-film released vancomycin was also tested. Additionally, controls of 0.01 M PBS dilutions in media containing no drug exposed to S. aureus (positive control) and not exposed to S. aureus (negative control) were included. These dilutions were incubated at 37° C. for 16-18 hours with agitation, following which, optical density at 600 nm was read using a BioTek PowerWave XS plate reader. Normalized bacteria density was calculated as follows: […]

Molecule `CN[C@H](CC(C)C)C(=O)N[C@H]1C(=O)N[C@@H](CC(N)=O)C(=O)N[C@H]2C(=O)N[C@H]3C(=O)N[C@H](C(=O)N[C@H](C(=O)O)c4cc(O)cc(O)c4-c4cc3ccc4O)[C@H](O)c3ccc(c(Cl)c3)Oc3cc2cc(c3O[C@@H]2O[C@H](CO)[C@@H](O)[C@H](O)[C@H]2O[C@H]2C[C@](C)(N)[C@H](O)[C@H](C)O2)Oc2ccc(cc2Cl)[C@H]1O` [vancomycin] has an MIC of 0.5 to 2 µg/mL (≈ 0.345 to 1.38 µM).
